Measured values published in patent publication US20260242482A1 (ONO PHARMACEUTICAL, published 2026).
These are yes or no findings as the source states them, for the method shown. Some binding calls cover weakened binding; strength is not graded here.

How the values were obtained:
[1] = molecular target: V54E; assay: flow cytometry, IIAdL1-CD80 cells expressing the PD-L1 mutant, soluble PD-1-EC; upper graph
[2] = molecular target: E58G; assay: as above
[3] = molecular target: Y56C/C113Y; assay: as above
[4] = molecular target: V54G/E58G; assay: as above
[5] = molecular target: D26V/Y56F/E58V; assay: as above
[6] = molecular target: E58K/A69E; assay: as above
[7] = molecular target: V54E/E58G/Q63R/E72G/C113Y; assay: as above
[8] = molecular target: Y56F/E58G; assay: as above
[9] = molecular target: Y56C; assay: as above
[10] = molecular target: E58K/E60K; assay: as above
[11] = molecular target: Y56S; assay: flow cytometry, IIAdL1-CD80 cells expressing the PD-L1 Y56 point mutant, soluble PD-1-EC; lower graph
[12] = molecular target: Y56G; assay: as above
[13] = molecular target: Y56W; assay: as above

Measured: binding

B1: soluble mouse PD-1 extracellular region (PD-1-EC) protein (receptor)
chain: LEVPNGPWRSLTFYPAWLTVSEGANATFTCSLSNWSEDLMLNWNRLSPSNQTEKQAAFCNGLSQPVQDARFQIIQLPNRHDFHMNILDTRRNDSGIYLCGAISLHPKAKIEESPGAELVVTERILETSTRYPSPSPKPEGRFQDYKDDDDK
notes: domain: five-stranded coiled coil domain; Soluble chimeric protein from 293T or Plat-E culture supernatant; also called mouse PD-1-EC; mPD-1; not shown: five-stranded coiled coil domain of cartilage oligomer matrix protein (Terskikh et al. 1997), fused to the C-terminus
binds: [1] | [2] | [3] | [4] | [5] | [6] | [7] | [8] | [9] | [10] | [11] | [12] | [13]
